Measurements published in US9096565B2, “Inhibitors of histone deacetylase” (MethylGene Inc., priority 2007, dated 2015).
At least one compound was matched to its structure with a doubt left.

Molecular target: one or more of HDAC-4, HDAC-5, HDAC-6, HDAC-7, HDAC-8, HDAC-9, HDAC-10 and HDAC-11
Assay: Inhibition of histone deacetylase enzymatic activity (summary statement over isoforms)
Assay type: biochemical
Settings: Table 3, selected examples; HDAC isoform not given
Method: The following protocol is used to assay the compounds of the invention.
The mixture is pre-incubated for 5 minutes at room temperature. The reaction is started by bringing the temperature to 37° C. and adding 15 μL substrate. Total reaction volume is 50 μL.
A 30 mM stock of Boc-Lys(trifluoroacetyl)-AMC substrate is prepared in DMSO. […] Reaction is started by adding 18 μL Boc-Lys(trifluoroacetyl)-AMC substrate and incubating at 37° C. for 20-30 minutes. The reaction is stopped by adding 50 μL trypsin (1 mg/mL) and a known HDAC inhibitor.

## O=C(NO)C1(c2ccccc2)CCN(Cc2ccccc2)CC1 [Compound 5-60, 1-benzyl-N-hydroxy-4-phenylpiperidine-4-carboxamide]
  IC50: 1 to 15 µM
